# Assay results published in PubChem BioAssay (NCATS).
# “And” between values parts separate entries of the source, which are not always exact repeats. Identical values can stand only once. This is one part of the list. These are further read-outs of the screen, such as a control signal, another cell line or another target. No call is given for them. The list favours compounds with an active or inconclusive main result. For part of these data: Potencies come from curve fits of mixed quality, noted in brackets.
# Tests used:
# [1] = qHTS Assay for Modulators of Human Peripheral Myelin Protein 22 (PMP22) Expression/Activity (AID 1967); conditions: Cell-based PMP22 reporter, dual-color luciferase ratio
# Method in brief: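 Readout is the corrected green/red luminescence ratio after 24 h compound exposure, normalised to untreated cells (0%). Engineered MSC80 mouse Schwann cells express green luciferase from the mouse Pmp22 promoter and red luciferase from EF-alpha as internal control.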
# [2] = qHTS Validation Assay to Find Inhibitors of Chronic Active B-Cell Receptor Signaling (AID 485345); conditions: ABC-DLBCL cells, chronic BCR signaling reporter; measured here: CBR control luciferase (viability counter)
# Method in brief: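 TMD8 ABC-DLBCL cells stably carrying doxycycline-inducible IkappaBalpha–green luciferase fusion plus unfused red luciferase; compounds 46 uM to 3 nM, 4 h at 37C with doxycycline. Corrected green/red luminescence ratio normalized to 10 uM MG-132 and basal cell wells; curves fitted.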
# [3] = Nrf2 qHTS screen for inhibitors: Validation (AID 493153); conditions: A549 ARE-Fluc reporter, 18-24 h; AC50: CellTiter-Fluor fluorescence read, measured here: cytotoxicity CellTiter-Fluor AC50; viability change: measured here: cytotoxicity max response
# Method in brief: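 A549 ARE_Fluc, 5% FBS OPTI-MEM; cpd titration, 18-24 h, 37°C/5% CO2. Read 1: CellTiter-Fluor (Ex 405/Em 525), cytotox. Read 2: luciferase lum, Nrf2 activity.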
# [4] = qHTS assay for small molecule agonists of retinoid X receptor alpha signaling (AID 588544); conditions: HEK293T RXRa-UAS-bla, beta-lactamase reporter, 18 h; 530 nm emission
# [5] = qHTS assay for small molecule antagonists of retinoid X receptor alpha signaling (AID 588546); conditions: HEK293T RXRa-UAS-bla, beta-lactamase ratio, antagonist mode; measured here: W530 green channel, cytotoxicity proxy;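 further: cells stimulated with 9-cis-retinoic acid as agonist; on the % scale 0 is the no-effect control and ±100 the full control effect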
# Method in brief: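 Beta-lactamase reporter inhibition, read as CCF4 fluorescence ratio (ex 405, em 460/530 nm) after 2 h at RT. HEK293T UAS-bla cells, 2500/well, were stimulated with 9-cis-RA at 500 or 100 nM final alongside test compound for 18 h at 37 C.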
# [6] = qHTS assay for small molecule antagonists of androgen receptor signaling (AID 588516); conditions: AR-UAS-bla HEK293, beta-lactamase ratio, antagonist mode, 16 h
# Method in brief: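 Antagonist mode: inhibition of R1881-stimulated (10 nM final) bla reporter in GeneBLAzer AR HEK 293 cells, 16 h at 37C, compounds titrated. IC50 and efficacy from Hill-equation fits of 405/460–530 nm FRET ratios.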
# [7] = qHTS assay for small molecule antagonists of glucocorticoid receptor signaling (AID 588533); conditions: HeLa MMTV-bla, GRE beta-lactamase ratio, antagonist mode, 18 h; measured here: W530 channel AC50
# [8] = qHTS assay for small molecule antagonists of peroxisome proliferator-activated receptor delta signaling (AID 588535); conditions: HEK293T PPARd-UAS-bla, beta-lactamase FRET ratio, 18 h; 460 nm channel;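 further: cells co-treated with a PPAR-delta agonist as stimulator during compound exposure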
# Method in brief: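 Fluorescence from CCF4-loaded GeneBLAzer PPAR-delta-UAS-bla HEK293T cells (2 hrs RT loading) quantified reporter inhibition after an 18 hr, 37 C compound exposure across a titration.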
# [9] = qHTS assay for small molecule antagonists of peroxisome proliferator-activated receptor gamma signaling (AID 588537); conditions: HEK293 PPARg-UAS-bla, beta-lactamase ratio, antagonist mode; measured here: W460 blue channel
# Method in brief: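 Fluorescence at 460 and 530 nm (405 nm excitation) reported beta-lactamase cleavage of CCF4 after 2 h room-temperature loading. HEK293 reporter cells in 1% charcoal/dextran-treated FBS had received compound and rosiglitazone for 16 h.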
# [10] = qHTS assay for small molecule antagonists of vitamin D receptor signaling (AID 588541); conditions: HEK293T VDR-UAS-bla, beta-lactamase ratio, antagonist mode; measured here: W460 blue channel (cell viability)
# [11] = measured here: green reporter channel AC50, mouse Pmp22 promoter in mouse Schwann cells
# [12] = measured here: red reporter channel AC50, EF-alpha promoter control reporter in MSC80 mouse Schwann cells
# [13] = measured here: W460 blue channel fit
# [14] = measured here: W530 green channel, cytotoxicity/artifact
smiles,measurement,setting,value
CCCn1c(C)c(C(=O)c2ccc3ccccc3c2)c2ccccc21,AC50,[1]; [11],"33.8 µM [falling, full curve]"
same,AC50,[1]; [12],"47.8 µM [falling, partial curve, poor fit]"
same,AC50,[2],"5.17 µM [rising, partial curve, poor fit]"
same,AC50,[3],"0.82 µM [falling, partial curve, poor fit]"
same,viability change,[3],-21.8%
O=C(O)c1cc[c]([Hg][Cl])cc1,AC50,[1]; [11],"47.8 µM [falling, partial curve]"
same,AC50,[1]; [12],"53.6 µM [falling, partial curve]"
same,AC50,[2],"13 µM [falling, single point]"
same,max response,[4],-45.1%
same,max response,[5],-34.9%
CCOP(=O)(OCC)SCS(=O)(=O)C(C)(C)C,AC50,[6]; [13],"28.2 µM [rising, single point]"
CCCCOC(=O)c1ccccc1C(=O)O,AC50,[6]; [13],"0.355 µM [rising, full curve, poor fit]"
C[N+]1(C)CCN(c2ccccc2)CC1,AC50,[1]; [12],"30.1 µM [falling, single point]"
same,AC50,[2],"0.731 µM [rising, full curve, poor fit]"
COP(=S)(OC)Oc1cc(Cl)c(Cl)cc1Cl,AC50,[6]; [13],"44.7 µM [falling, single point]"
same,AC50,[6]; [14],"44.7 µM [rising, single point]"
Oc1cc(Cl)c(Cl)c(Cl)c1Cl,AC50,[6]; [14],"20 µM [rising, partial curve, poor fit]"
same,AC50,[7],"17.8 µM [falling, partial curve, poor fit]"
same,max response,[8],61.6%
same,AC50,[9],"12.6 µM [falling, full curve]"
same,max response,[4],22.8%
same,max response,[5],5.12%
C1CC[CH]([Sn]([CH]2CCCCC2)[CH]2CCCCC2)CC1,AC50,[6]; [13],"28.2 µM [falling, full curve, poor fit]"
same,AC50,[6]; [14],"14.1 µM [rising, partial curve]"
same,max response,[8],-32.1%
same,AC50,[9],"17.8 µM [falling, full curve, poor fit]"
same,AC50,[10],"44.7 µM [falling, partial curve, poor fit]"
same,max response,[4],10.3%
same,max response,[5],-24.1%
CCCCC(CC)COC(=O)c1ccc(C(=O)OCC(CC)CCCC)c(C(=O)OCC(CC)CCCC)c1 (configuration not stated),AC50,[6]; [13],"12.6 µM [falling, partial curve, poor fit]"
same,max response,[8],-2%
same,AC50,[9],"70.8 µM [rising, single point]"
CCCCCC[N+](=O)[O-],AC50,[6]; [13],"0.0355 µM [falling, full curve, poor fit]"
same,max response,[8],-26.1%
same,AC50,[9],"0.0398 µM [falling, full curve, poor fit]"
[Cl][Sn]([c]1ccccc1)([c]1ccccc1)[c]1ccccc1,AC50,[6]; [13],"3.55 µM [falling, full curve]"
same,AC50,[6]; [14],"1.58 µM [rising, full curve]"
same,AC50,[7],"50.1 µM [falling, partial curve, poor fit]"
same,max response,[8],-89.2%
same,AC50,[9],"3.98 µM [falling, full curve]"
same,max response,[4],-34.7%
same,max response,[5],-52.9%
C=CC(=O)OCC(CO)(COC(=O)C=C)COC(=O)C=C,AC50,[6]; [13],"22.4 µM [falling, partial curve] and 15.8 µM [falling, full curve]"
same,AC50,[6]; [14],"22.4 µM [rising, full curve] and 35.5 µM [rising, partial curve]"
same,max response,[8],-65.1% and -57.4%
same,AC50,[9],"22.4 µM [falling, full curve] and 31.6 µM [falling, partial curve]"
same,AC50,[10],"10 µM [falling, full curve] and 8.91 µM [falling, full curve]"
same,max response,[4],-18.8% and -5.32%
same,max response,[5],18.5%
CO/N=C(/C(=O)OC)c1ccccc1COc1ccccc1C,AC50,[6]; [13],"31.6 µM [falling, partial curve, poor fit]"
same,AC50,[6]; [14],"25.1 µM [rising, partial curve, poor fit]"
same,max response,[5],20.3%
CC[C@H]1CCCC(O[C@H]2CC[C@H](N(C)C)[C@@H](C)O2)[C@@H](C)C(=O)C2=C[C@@H]3[C@@H](C=C[C@@H]4C[C@@H](O[C@@H]5O[C@@H](C)[C@H](OC)[C@@H](OC)[C@H]5OC)C[C@@H]34)[C@@H]2CC(=O)O1 (some centres not stated),AC50,[6]; [14],"15.8 µM [rising, full curve]"
same,max response,[8],165%
same,AC50,[10],"7.08 µM [rising, full curve, poor fit]"
same,max response,[4],28.1%
same,max response,[5],-0.989%
